Test results from publication doi:10.1101/2024.09.17.613558.
For at least one entry, the source does not settle the construct or the ends of the probe. At least one verdict rests on a figure or table, not on a statement of the authors. Protein sequences can lack the tags named with them.

Legend:
FLAG-SMARCAL1 = target: T1, FLAG-SMARCAL1 (UniProt Q9NZC9); assay: EMSA; settings: 0-100 nM protein, 1 nM DNA
T1 sequence (looked up, limits assumed): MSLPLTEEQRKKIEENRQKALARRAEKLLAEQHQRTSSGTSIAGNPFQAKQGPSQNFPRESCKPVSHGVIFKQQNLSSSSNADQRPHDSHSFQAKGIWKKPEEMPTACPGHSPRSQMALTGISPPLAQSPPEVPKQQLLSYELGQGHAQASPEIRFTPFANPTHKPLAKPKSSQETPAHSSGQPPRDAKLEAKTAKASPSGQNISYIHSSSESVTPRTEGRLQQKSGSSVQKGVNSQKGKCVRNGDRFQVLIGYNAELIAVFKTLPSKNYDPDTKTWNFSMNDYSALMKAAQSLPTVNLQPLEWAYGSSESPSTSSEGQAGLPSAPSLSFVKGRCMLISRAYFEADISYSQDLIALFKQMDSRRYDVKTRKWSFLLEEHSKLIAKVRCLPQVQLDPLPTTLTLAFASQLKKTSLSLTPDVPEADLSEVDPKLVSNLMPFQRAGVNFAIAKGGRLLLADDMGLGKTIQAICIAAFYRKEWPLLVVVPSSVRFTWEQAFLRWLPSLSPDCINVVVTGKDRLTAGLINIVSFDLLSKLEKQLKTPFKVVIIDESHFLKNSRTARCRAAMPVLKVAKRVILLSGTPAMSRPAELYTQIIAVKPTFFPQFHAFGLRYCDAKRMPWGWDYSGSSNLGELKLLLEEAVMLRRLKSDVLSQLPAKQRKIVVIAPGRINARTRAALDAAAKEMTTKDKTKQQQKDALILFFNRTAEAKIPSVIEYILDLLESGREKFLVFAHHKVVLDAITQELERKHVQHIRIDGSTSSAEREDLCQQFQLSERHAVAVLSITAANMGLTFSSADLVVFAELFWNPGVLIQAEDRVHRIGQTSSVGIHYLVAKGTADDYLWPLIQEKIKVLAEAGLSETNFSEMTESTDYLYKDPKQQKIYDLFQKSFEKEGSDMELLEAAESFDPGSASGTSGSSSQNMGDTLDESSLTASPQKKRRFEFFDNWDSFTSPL

FLAG-ZRANB3 = target: T2, FLAG-ZRANB3 (UniProt Q5FWF4); assay: EMSA; settings: 0-100 nM protein, 1 nM DNA
T2 sequence (looked up, limits assumed): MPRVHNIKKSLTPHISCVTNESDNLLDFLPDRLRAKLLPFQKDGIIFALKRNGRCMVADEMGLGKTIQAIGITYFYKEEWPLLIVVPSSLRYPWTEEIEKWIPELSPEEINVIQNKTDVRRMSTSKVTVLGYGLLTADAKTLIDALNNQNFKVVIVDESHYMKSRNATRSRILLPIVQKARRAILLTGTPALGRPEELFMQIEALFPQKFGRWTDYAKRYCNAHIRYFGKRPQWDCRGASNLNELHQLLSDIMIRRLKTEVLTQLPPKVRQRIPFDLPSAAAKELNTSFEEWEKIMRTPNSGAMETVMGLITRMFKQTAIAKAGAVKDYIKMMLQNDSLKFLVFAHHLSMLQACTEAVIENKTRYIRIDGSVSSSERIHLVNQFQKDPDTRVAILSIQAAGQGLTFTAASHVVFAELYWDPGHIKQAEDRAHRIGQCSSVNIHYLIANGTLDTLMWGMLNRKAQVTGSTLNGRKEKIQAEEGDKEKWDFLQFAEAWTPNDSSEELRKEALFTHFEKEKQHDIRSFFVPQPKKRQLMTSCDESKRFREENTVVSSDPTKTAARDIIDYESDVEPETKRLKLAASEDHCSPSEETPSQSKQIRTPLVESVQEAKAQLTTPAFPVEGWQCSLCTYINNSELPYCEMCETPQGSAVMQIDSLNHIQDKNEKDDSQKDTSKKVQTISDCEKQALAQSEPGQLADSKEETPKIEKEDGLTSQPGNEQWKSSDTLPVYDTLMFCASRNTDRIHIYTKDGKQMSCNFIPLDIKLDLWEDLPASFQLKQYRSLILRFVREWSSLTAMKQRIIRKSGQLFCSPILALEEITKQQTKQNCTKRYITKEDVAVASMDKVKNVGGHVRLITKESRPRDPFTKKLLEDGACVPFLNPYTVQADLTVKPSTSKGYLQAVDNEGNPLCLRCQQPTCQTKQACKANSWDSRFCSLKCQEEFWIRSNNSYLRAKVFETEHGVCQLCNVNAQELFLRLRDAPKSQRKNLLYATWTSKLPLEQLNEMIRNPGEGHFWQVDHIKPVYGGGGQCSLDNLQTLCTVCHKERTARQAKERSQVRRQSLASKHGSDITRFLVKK

“CGTGACTTGATGTTAACCCTAACCCTAAGATATCGCGTTATCAGAGTGTGAGGATACATGTAGGCAATTGCCACGTGTCTATCAGCTGAAGTTGTTCGCGACGTGCGATCGTCGCTGCGACG / CGTCGCAGCGACGATCGCACGTCGCGAACAACTTCAGCTGATAGACACGTGGCAATTGCCTACATGTATCCTCACACTCTGAATACGCGATATCTTAGGGTTAGGGTTAACATCAAGTCACG / TCAGAGTGTGAGGATACATGTAGGCAATTGCCACGTGTCTATCAGCTGAAGTTGTTCGCGACGTGCGATCGTCGCTGCGACG [fork, leading ssDNA arm, no lesion (Lead 122/Lag 122/Lag 82)]”: binds (FLAG-SMARCAL1); binds (FLAG-ZRANB3).

“GCACCCTAAGATATCGCGTTGTCAGAGTGTGAGGATACATGTGGGCAATTGCCACGTGTCCG / CGGACACGTGGCAATTGCCTACATGTATCCTCACACTCTGATAACGCGATATCTTAGGGTGC / CGGACACGTGGCAATTGCCCACATGTATCCTCACACTCTGAC / ATCAGAGTGTGAGGATACATGTAGGCAATTGCCACGTGTCCG [fork, no biotin (Lag N42/Lag P62/Lead N42/Lead P62)]”: binds (FLAG-SMARCAL1); binds (FLAG-ZRANB3).
